Results from patent publication US20020183256A1 (priority 2000, published 2002).

Assay: general procedure: solution-phase peptide synthesis; EDC hydrochloride / HOBt, Hünig's base; hydroxysuccinimide ester
Details: bis-trifluoroacetate

Substance: 20-O-[L-Prolyl-L-leucyl-glycyl-L-leucyl-L-histidyl-L-valyl]-camptothecin bis-trifluoroacetate
- step yield (coupling step): 77%
- step yield (late stage modification step): 91%

Substance: N-tert-butoxycarbonyl-L-prolyl-L-leucyl-glycyl-L-leucin
- step yield (coupling step): 42%
